Data from publication doi:10.1101/2024.07.01.601539.

Target: recombinant LC3C (Microtubule-associated protein 1A/1B-light chain 3, isoform C) (UniProt Q9BXW4)
Experiment: far-Western, overlay or dot blot

recombinant Heat Shock Protein 27 (HSp27) (from UniProt P04792 1-205)
binding: binds

No constants are given. Whether binding was seen depends on the method and setting. A result given as binding can be weak or reduced; the word gives no strength.
